We go through 3 molecules from article doi:10.1101/133074.

By UniProt entry, the sequences of proteins in these tests, tags left out.
UniProt P32854: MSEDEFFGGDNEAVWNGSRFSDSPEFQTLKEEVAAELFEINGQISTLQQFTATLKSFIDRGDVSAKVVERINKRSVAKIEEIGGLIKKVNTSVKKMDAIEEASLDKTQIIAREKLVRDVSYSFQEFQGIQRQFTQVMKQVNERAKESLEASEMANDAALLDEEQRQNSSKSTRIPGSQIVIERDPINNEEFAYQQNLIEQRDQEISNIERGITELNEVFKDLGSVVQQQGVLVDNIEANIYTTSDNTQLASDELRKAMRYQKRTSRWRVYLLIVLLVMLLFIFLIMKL
UniProt P20795: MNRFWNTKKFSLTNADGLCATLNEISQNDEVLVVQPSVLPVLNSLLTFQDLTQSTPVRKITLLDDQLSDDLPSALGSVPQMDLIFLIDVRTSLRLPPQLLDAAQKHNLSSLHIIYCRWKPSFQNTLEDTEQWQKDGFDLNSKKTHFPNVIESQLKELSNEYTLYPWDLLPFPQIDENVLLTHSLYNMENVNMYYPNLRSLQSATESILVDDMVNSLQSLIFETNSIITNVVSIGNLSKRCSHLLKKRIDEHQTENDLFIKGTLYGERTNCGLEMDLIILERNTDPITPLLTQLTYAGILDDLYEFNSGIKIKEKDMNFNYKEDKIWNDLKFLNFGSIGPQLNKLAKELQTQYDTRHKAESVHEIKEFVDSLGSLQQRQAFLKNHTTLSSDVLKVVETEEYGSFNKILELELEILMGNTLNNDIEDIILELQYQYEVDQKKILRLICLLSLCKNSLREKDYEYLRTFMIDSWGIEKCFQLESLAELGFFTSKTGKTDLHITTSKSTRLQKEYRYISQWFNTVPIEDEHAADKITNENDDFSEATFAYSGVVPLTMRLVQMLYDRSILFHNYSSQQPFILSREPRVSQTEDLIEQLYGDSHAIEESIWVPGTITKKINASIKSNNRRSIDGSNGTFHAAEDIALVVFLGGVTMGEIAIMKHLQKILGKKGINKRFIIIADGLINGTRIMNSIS
UniProt P33328: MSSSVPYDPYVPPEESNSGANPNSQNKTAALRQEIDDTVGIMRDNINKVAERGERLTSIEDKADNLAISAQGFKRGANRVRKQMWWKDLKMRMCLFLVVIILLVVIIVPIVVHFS

Assay [1] deals with T1, CBP::Vam3 (S. cerevisiae) (UniProt Q12241).
T1 sequence: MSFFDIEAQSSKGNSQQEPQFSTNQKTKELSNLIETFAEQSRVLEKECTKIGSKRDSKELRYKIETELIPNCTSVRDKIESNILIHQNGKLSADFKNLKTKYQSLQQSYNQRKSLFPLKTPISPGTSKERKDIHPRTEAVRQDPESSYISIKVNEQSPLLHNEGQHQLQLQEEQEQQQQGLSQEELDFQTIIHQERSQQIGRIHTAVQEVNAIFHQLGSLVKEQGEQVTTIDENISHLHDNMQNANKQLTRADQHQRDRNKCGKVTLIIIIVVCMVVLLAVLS
The assay is described as follows: pull-down.

The target in assay [2] is Pep12 fused to calmodulin-binding protein (CBP::Pep12) (S. cerevisiae) (UniProt P32854). Nature of the assay: pull-down.

Results are given in words; binding and its absence hold for the method and conditions named. Binding seen in cells or lysates may run through a third protein. Some results given as binding are weak or reduced against the parent protein; the word gives no strength.

Take Vps33 (from UniProt P20795 1-691): the binding result in assay [1] and in assay [2] was “binds” each time.

As to Snc2 (from UniProt P33328 1-115), the binding entry in assay [1] and in assay [2] was “no binding” each time.

B1: Nyv1 (protein, UniProt Q12255 1-253)
chain: MKRFNVSYVEVIKNGETISSCFQPFQKNENYGTITSANEQITPVIFHNLIMDMVLPKVVPIKGNKVTKMSMNLIDGFDCFYSTDDHDPKTVYVCFTLVDMPKILPIRILSGLQEYESNATNELLSSHVGQILDSFHEELVEYRNQTLNSSGNGQSSNGNGQNTISDIGDATEDQIKDVIQIMNDNIDKFLERQERVSLLVDKTSQLNSSSNKFRRKAVNIKEIMWWQKVKNITLLTFTIILFVSAAFMFFYLW
On to B1, for which the binding result in assay [1] and in assay [2] was “binds” in each case.
